No constants are given. Whether binding was seen depends on the method and setting. For some of these results: In cells and extracts the contact can be indirect. Some binding calls cover weakened binding; strength is not graded here. Sequences can lack the tags named with a protein.
Legend:
[1] = target: MBP-Cdk10 (T196E) (human) (UniProt Q15131); assay: pull-down; co-purification from Sf9 cells co-expressing MBP-Cdk10 (bait) and His-CycQ; 1 ml MBPTrap column; lysis/wash 50 mM Hepes pH 7.6, 300 mM NaCl, 1 mM TCEP; elution with 10 mM maltose; Coomassie SDS-PAGE
[2] = target: MBP-Cdk10 (human, wild type) (human) (UniProt Q15131); assay: as above
[3] = target: MBP-Cdk10 (T196A) (human) (UniProt Q15131); assay: as above
[4] = target: analogue-sensitive Cdk10 (M117G) (human) (UniProt Q15131); assay: SEC; complex co-expressed in Sf9, purified by sequential HisTrap (His-CycQ) and MBPTrap (MBP-Cdk10) columns, tags removed by TEV, then Superdex 75 pg in 20 mM Hepes, 300 mM NaCl, 1 mM TCEP, 10% glycerol; SDS-PAGE of the purified complex; both purified

Protein sequences, listed by entry. Tags and fused reporters are not part of them. Lines headed by an entry give the natural chain unless they say otherwise; changes in a name come on top.
UniProt Q15131: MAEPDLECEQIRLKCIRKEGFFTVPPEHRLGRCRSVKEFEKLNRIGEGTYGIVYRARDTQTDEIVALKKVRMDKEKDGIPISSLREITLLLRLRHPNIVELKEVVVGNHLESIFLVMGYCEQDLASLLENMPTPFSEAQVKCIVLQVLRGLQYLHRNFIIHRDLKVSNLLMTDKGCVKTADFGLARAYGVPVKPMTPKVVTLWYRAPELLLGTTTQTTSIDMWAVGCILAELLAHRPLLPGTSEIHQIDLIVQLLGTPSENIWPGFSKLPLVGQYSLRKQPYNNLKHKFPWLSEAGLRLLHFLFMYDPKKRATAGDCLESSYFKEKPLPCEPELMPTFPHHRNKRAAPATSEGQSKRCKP

B1: His-CycQ (human Cyclin Q) (protein, UniProt Q8N1B3 1-248)
chain: MEAPEGGGGGPAARGPEGQPAPEARVHFRVARFIMEAGVKLGMRSIPIATACTIYHKFFCETNLDAYDPYLIAMSSIYLAGKVEEQHLRTRDIINVSNRYFNPSGEPLELDSRFWELRDSIVQCELLMLRVLRFQVSFQHPHKYLLHYLVSLQNWLNRHSWQRTPVAVTAWALLRDSYHGALCLRFQAQHIAVAVLYLALQVYGVEVPAEVEAEKPWWQVFNDDLTKPIIDNIVSDLIQIYTMDTEIP
binding [1]: binds
binding [2]: binds
binding [3]: binds

B2: human Cyclin Q, full length, tag removed (protein, UniProt Q8N1B3 1-248)
chain: B1 chain
binding [4]: binds

— article PMC8924752, “Functional characterization of the human Cdk10/Cyclin Q complex” (Open Biology, 2022)
